Results are given in words; binding and its absence hold for the method and conditions named. In cells and extracts the contact can be indirect. For some assays here: Binding calls can cover weak binding; strength is not graded here.
Experiments:
[1] = target: caspase 8 with mutant DEDI-domain (DEDIm) (UniProt Q14790); test: co-IP; caspase 8 mutants (DEDIm, PBm, DEDIIm) transiently transfected into MIP/SP cells; co-IP with SPARC
[2] = target: caspase 8 with mutant DEDII-domain (DEDIIm) (UniProt Q14790); test: as above

The chains behind the UniProt entries cited, without tags or fusion partners. Where a name states a change or a piece, a line headed by the entry shows the natural chain unless it says otherwise.
UniProt Q14790: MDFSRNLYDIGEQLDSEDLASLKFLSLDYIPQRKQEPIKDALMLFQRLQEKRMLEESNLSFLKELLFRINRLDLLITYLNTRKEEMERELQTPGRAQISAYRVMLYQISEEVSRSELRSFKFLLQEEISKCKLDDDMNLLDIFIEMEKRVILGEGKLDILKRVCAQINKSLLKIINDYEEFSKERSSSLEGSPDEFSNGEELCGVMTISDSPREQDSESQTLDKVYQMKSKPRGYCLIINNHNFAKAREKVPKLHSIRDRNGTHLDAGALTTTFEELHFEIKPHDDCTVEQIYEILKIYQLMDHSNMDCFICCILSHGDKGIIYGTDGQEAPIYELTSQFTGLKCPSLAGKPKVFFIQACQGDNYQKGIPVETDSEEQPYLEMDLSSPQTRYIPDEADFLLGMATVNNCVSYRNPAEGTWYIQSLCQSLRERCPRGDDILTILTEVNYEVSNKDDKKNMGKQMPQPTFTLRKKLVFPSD

B1: SPARC overexpressed in MIP/SP cells (protein, UniProt P09486 18-303)
chain: APQQEALPDETEVVEETVAEVTEVSVGANPVQVEVGEFDDGAEETEEEVVAENPCQNHHCKHGKVCELDENNTPMCVCQDPTSCPAPIGEFEKVCSNDNKTFDSSCHFFATKCTLEGTKKGHKLHLDYIGPCKYIPPCLDSELTEFPLRMRDWLKNVLVTLYERDEDNNLLTEKQKLRVKKIHENEKRLEAGDHPVELLARDFEKNYNMYIFPVHWQFGQLDQHPIDGYLSHTELAPLRAPLIPMEHCTTRFFETCDLDNDKYIALDEWAGCFGIKQKDIDKDLVI
- binding [1]: no binding
- binding [2]: binds
